Patent US20190381086A1, “INHIBITION OF NEDDYLATION USING GLYCYL-tRNA SYNTHETASE INHIBITORS” (The Scripps Research Institute, priority 2015, published 2019)
No constants are given. Whether binding was seen depends on the method and setting. For some of these results: In cells and extracts the contact can be indirect. Some entries that bind do so weakly or less than the wild type. For some of these results: Where a sequence is shown, tags or fusion partners need not be part of it.

Amino acid sequences for entries named in this document (tags omitted). Residues count along the entry.
UniProt Q15843, residues 1-76: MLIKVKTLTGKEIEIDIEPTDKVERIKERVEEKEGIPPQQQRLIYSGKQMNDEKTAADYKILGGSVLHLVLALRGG

T1: GST-APPBP1 (UniProt Q13564)
T1 sequence (looked up): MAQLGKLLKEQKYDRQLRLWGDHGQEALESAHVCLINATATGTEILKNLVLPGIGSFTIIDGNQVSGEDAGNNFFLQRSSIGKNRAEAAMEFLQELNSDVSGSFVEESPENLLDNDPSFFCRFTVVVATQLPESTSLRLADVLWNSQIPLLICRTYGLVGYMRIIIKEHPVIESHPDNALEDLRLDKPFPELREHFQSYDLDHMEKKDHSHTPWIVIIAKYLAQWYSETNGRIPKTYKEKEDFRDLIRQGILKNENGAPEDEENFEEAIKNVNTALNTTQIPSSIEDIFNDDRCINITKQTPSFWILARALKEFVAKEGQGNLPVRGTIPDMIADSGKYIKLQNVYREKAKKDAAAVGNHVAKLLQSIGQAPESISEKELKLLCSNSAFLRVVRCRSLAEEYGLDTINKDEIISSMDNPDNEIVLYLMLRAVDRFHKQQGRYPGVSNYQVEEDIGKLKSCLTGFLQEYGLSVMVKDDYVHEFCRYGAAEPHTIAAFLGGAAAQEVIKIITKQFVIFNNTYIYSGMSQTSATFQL

T2: GST-Ubc12
T2 sequence (chain, by the resolver, N-terminal GST fusion, not carried in the letters): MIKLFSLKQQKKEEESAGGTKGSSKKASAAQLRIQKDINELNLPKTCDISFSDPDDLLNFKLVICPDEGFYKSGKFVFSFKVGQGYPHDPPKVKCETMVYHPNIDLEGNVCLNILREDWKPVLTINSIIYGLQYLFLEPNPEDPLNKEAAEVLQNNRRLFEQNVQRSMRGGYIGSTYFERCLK


Key:
[1] = target: E1 for neddylation, APPBP1/UBA3 heterodimer (UniProt Q13564); experiment: biolayer interferometry, E1 immobilized, 62.5-500 nM
GST-APPBP1 = target: T1, GST-APPBP1; experiment: GST pull-down on glutathione beads, blot anti-GlyRS
GST-Ubc12 = target: T2, GST-Ubc12; experiment: as above
NEDD8 [2] = target: NEDD8 (UniProt Q15843); experiment: His-tag pull-down on nickel-NTA beads, blot anti-NEDD8
NEDD8 [3] = target: NEDD8 (UniProt Q15843); experiment: His-tag pull-down
[4] = target: E1 for neddylation, APPBP1/UBA3 heterodimer (UniProt Q13564); experiment: GST pull-down and biolayer interferometry
[5] = target: Flag-tagged Ubc12-C111S expressed in HEK293 cells, unconjugated (UniProt P61081); experiment: co-immunoprecipitation, HEK293 cells

binding [1]	binding (GST-APPBP1)	binding (GST-Ubc12)	binding (NEDD8 [2])	binding (NEDD8 [3])	binding [4]	binding [5]	Binder
binds	binds	binds	binds	–	–	–	ΔWHEP GlyRS (enzyme, not shown: small tags and cut ends) IVDRAKMEDTLKRRFFYDQAFAIYGGVSGLYDFGPVGCALKNNIIQTWRQHFIQEEQILEIDCTMLTPEPVLKTSGHVDKFADFMVKDVKNGECFRADHLLKAHLQKLMSDKKCSVEKKSEMESVLAQLDNYGQQELADLFVNYNVKSPITGNDLSPPVSFNLMFKTFIGPGGNMPGYLRPETAQGIFLNFKRLLEFNQGKLPFAAAQIGNSFRNEISPRSGLIRVREFTMAEIEHFVDPSEKDHPKFQNVADLHLYLYSAKAQVSGQSARKMRLGDAVEQGVINNTVLGYFIGRIYLYLTKVGISPDKLRFRQHMENEMAHYACDCWDAESKTSYGWIEIVGCADRSCYDLSCHARATKVPLVAEKPLKEPKTVNVVQFEPSKGAIGKAYKKDAKLVMEYLAICDECYITEMEMLLNEKGEFTIETEGKTFQLTKDMINVKRFQKTLYVEEVVPNVIEPSFGLGRIMYTVFEHTFHVREGDEQRTFFSFPAVVAPFKCSVLPLSQNQEFMPFVKELSEALTRHGVSHKVDDSSGSIGRRYARTDEIGVAFGVTIDFDTVNKTPHTATLRDRDSMRQIRAEISELPSIVQDLANGNITWADVEARYPLFEGQETGKKETIEE
–	–	–	binds	binds	–	–	His-tagged full-length human GlyRS (glycyl-tRNA synthetase) (enzyme, not shown: small tags and cut ends) MDGAGAEEVLAPLRLAVRQQGDLVRKLKEDKAPQVDVDKAVAELKARKRVLEAKELALQPKDDIVDRAKMEDTLKRRFFYDQAFAIYGGVSGLYDFGPVGCALKNNIIQTWRQHFIQEEQILEIDCTMLTPEPVLKTSGHVDKFADFMVKDVKNGECFRADHLLKAHLQKLMSDKKCSVEKKSEMESVLAQLDNYGQQELADLFVNYNVKSPITGNDLSPPVSFNLMFKTFIGPGGNMPGYLRPETAQGIFLNFKRLLEFNQGKLPFAAAQIGNSFRNEISPRSGLIRVREFTMAEIEHFVDPSEKDHPKFQNVADLHLYLYSAKAQVSGQSARKMRLGDAVEQGVINNTVLGYFIGRIYLYLTKVGISPDKLRFRQHMENEMAHYACDCWDAESKTSYGWIEIVGCADRSCYDLSCHARATKVPLVAEKPLKEPKTVNVVQFEPSKGAIGKAYKKDAKLVMEYLAICDECYITEMEMLLNEKGEFTIETEGKTFQLTKDMINVKRFQKTLYVEEVVPNVIEPSFGLGRIMYTVFEHTFHVREGDEQRTFFSFPAVVAPFKCSVLPLSQNQEFMPFVKELSEALTRHGVSHKVDDSSGSIGRRYARTDEIGVAFGVTIDFDTVNKTPHTATLRDRDSMRQIRAEISELPSIVQDLANGNITWADVEARYPLFEGQETGKKETIEE
binds	binds	binds	–	–	binds	–	full-length human GlyRS (enzyme) MDGAGAEEVLAPLRLAVRQQGDLVRKLKEDKAPQVDVDKAVAELKARKRVLEAKELALQPKDDIVDRAKMEDTLKRRFFYDQAFAIYGGVSGLYDFGPVGCALKNNIIQTWRQHFIQEEQILEIDCTMLTPEPVLKTSGHVDKFADFMVKDVKNGECFRADHLLKAHLQKLMSDKKCSVEKKSEMESVLAQLDNYGQQELADLFVNYNVKSPITGNDLSPPVSFNLMFKTFIGPGGNMPGYLRPETAQGIFLNFKRLLEFNQGKLPFAAAQIGNSFRNEISPRSGLIRVREFTMAEIEHFVDPSEKDHPKFQNVADLHLYLYSAKAQVSGQSARKMRLGDAVEQGVINNTVLGYFIGRIYLYLTKVGISPDKLRFRQHMENEMAHYACDCWDAESKTSYGWIEIVGCADRSCYDLSCHARATKVPLVAEKPLKEPKTVNVVQFEPSKGAIGKAYKKDAKLVMEYLAICDECYITEMEMLLNEKGEFTIETEGKTFQLTKDMINVKRFQKTLYVEEVVPNVIEPSFGLGRIMYTVFEHTFHVREGDEQRTFFSFPAVVAPFKCSVLPLSQNQEFMPFVKELSEALTRHGVSHKVDDSSGSIGRRYARTDEIGVAFGVTIDFDTVNKTPHTATLRDRDSMRQIRAEISELPSIVQDLANGNITWADVEARYPLFEGQETGKKETIEE
–	–	–	–	–	–	binds	V5-tagged GlyRS expressed in HEK293 cells (enzyme, not shown: small tags and cut ends) MDGAGAEEVLAPLRLAVRQQGDLVRKLKEDKAPQVDVDKAVAELKARKRVLEAKELALQPKDDIVDRAKMEDTLKRRFFYDQAFAIYGGVSGLYDFGPVGCALKNNIIQTWRQHFIQEEQILEIDCTMLTPEPVLKTSGHVDKFADFMVKDVKNGECFRADHLLKAHLQKLMSDKKCSVEKKSEMESVLAQLDNYGQQELADLFVNYNVKSPITGNDLSPPVSFNLMFKTFIGPGGNMPGYLRPETAQGIFLNFKRLLEFNQGKLPFAAAQIGNSFRNEISPRSGLIRVREFTMAEIEHFVDPSEKDHPKFQNVADLHLYLYSAKAQVSGQSARKMRLGDAVEQGVINNTVLGYFIGRIYLYLTKVGISPDKLRFRQHMENEMAHYACDCWDAESKTSYGWIEIVGCADRSCYDLSCHARATKVPLVAEKPLKEPKTVNVVQFEPSKGAIGKAYKKDAKLVMEYLAICDECYITEMEMLLNEKGEFTIETEGKTFQLTKDMINVKRFQKTLYVEEVVPNVIEPSFGLGRIMYTVFEHTFHVREGDEQRTFFSFPAVVAPFKCSVLPLSQNQEFMPFVKELSEALTRHGVSHKVDDSSGSIGRRYARTDEIGVAFGVTIDFDTVNKTPHTATLRDRDSMRQIRAEISELPSIVQDLANGNITWADVEARYPLFEGQETGKKETIEE
binds	–	–	–	–	binds	–	ABD (V541-E685) of GlyRS (enzyme) VREGDEQRTFFSFPAVVAPFKCSVLPLSQNQEFMPFVKELSEALTRHGVSHKVDDSSGSIGRRYARTDEIGVAFGVTIDFDTVNKTPHTATLRDRDSMRQIRAEISELPSIVQDLANGNITWADVEARYPLFEGQETGKKETIEE
